The list shows a part of the results. Most entries show no effect beyond the scatter of the controls.
Compound: CN[C@@H]1C[C@H]2O[C@@](C)([C@@H]1OC)n1c3ccccc3c3c4c(c5c6ccccc6n2c5c31)C(=O)NC4 [staurosporine]
Assay: log2 fold change of tryptic peptide abundance, ligand vs vehicle (limited proteolysis) (log2 ratio); higher = more trypsin-susceptible (destabilized)
Conditions: ligand concentration: 20 uM; sample: mouse liver crude lysate; replicate design: treated separately

Target	log2 fold change
UniProt Q9D404 (peptide sequence: NIPCSVAAYVPR, peptide start residue: 83)	0.199
UniProt Q9D3X5 (peptide sequence: TINPFGEQPR, peptide start residue: 66)	-0.0255
UniProt Q9D6L8 (peptide sequence: TYRPLNDVHIKDITIHANPFAQ, peptide start residue: 140)	0.158
UniProt Q9D273 (peptide sequence: WIDKYSSQLPPLK, peptide start residue: 150)	0.18
UniProt Q9D1F4 (peptide sequence: SLPVSVPVWAFK, peptide start residue: 184)	-0.213
UniProt Q9D6J6 (peptide sequence: YHIQVCTTTPCMLR, peptide start residue: 129)	-0.105
UniProt Q9D6J5 (peptide sequence: DMLPGSYPR, peptide start residue: 35)	-0.154
UniProt Q9D924 (peptide sequence: AALTLTPSAVNK, peptide start residue: 23)	0.119
UniProt Q9D1H7 (peptide sequence: ASVEKGDYYEAHQMYR, peptide start residue: 32)	0.331
UniProt Q9D8N6 (peptide sequence: NQLRYSESMK, peptide start residue: 228)	-0.162
UniProt Q9D162 (peptide sequence: DLEAVTSQLYR, peptide start residue: 28)	-0.309
UniProt Q9D939 (peptide sequence: ANEMPAPR, peptide start residue: 97)	0.395
UniProt Q9D2D7 (peptide sequence: LSPVTPTPEGPK, peptide start residue: 373)	0.277
UniProt Q9D1P0 (peptide sequence: VWTPPDDFRM, peptide start residue: 169)	0.286
UniProt Q9D7Z3 (peptide sequence: HFIHSCLYGSDSKR, peptide start residue: 187)	-0.245
UniProt Q9D7H3 (peptide sequence: AFVAGVLPLKVAK, peptide start residue: 196)	-0.443

Reformatted with each value named: entries from further up.
UniProt Q9D924 (peptide sequence: AALTLTPSAVNK, peptide start residue: 23)
  log2 fold change: 0.119
UniProt Q9D1H7 (peptide sequence: ASVEKGDYYEAHQMYR, peptide start residue: 32)
  log2 fold change: 0.331

(further entries)

Target	log2 fold change
UniProt Q9D8S3 (peptide sequence: STGSSDRPSAR, peptide start residue: 400)	-0.678
UniProt Q9D2X5 (peptide sequence: THLQLGSVLYHHTK, peptide start residue: 73)	-0.256
UniProt Q9D2U5 (peptide sequence: QQLEALLNK, peptide start residue: 43)	-0.192
UniProt Q9D240 (peptide sequence: FQLNSLPK, peptide start residue: 142)	-0.0143
UniProt Q9D1M4 (peptide sequence: SLGLKPGNK, peptide start residue: 13)	-0.195
UniProt Q9D8F1 (peptide sequence: SLLVLTGAAR, peptide start residue: 238)	0.122
UniProt Q9D5R3 (peptide sequence: LQVLTPQKLELVK, peptide start residue: 98)	-0.136
UniProt Q9DAI4 (peptide sequence: WIHVKPER, peptide start residue: 243)	0.205
UniProt Q9D8N0 (peptide sequence: QVLEPSFR, peptide start residue: 174)	0.157
UniProt Q9D727 (peptide sequence: HITATHGEPTASLLPR, peptide start residue: 52)	0.113
UniProt Q9D6I7 (peptide sequence: SLCAGAWLR, peptide start residue: 4)	0.207
UniProt Q9D7E4 (peptide sequence: AYVAMNER, peptide start residue: 68)	-0.0806
UniProt Q9D8P7 (peptide sequence: VDPEGTDKTVLK, peptide start residue: 91)	-0.0144
UniProt Q9D7J9 (peptide sequence: SVVALGK, peptide start residue: 246)	0.249
UniProt Q9D6Z1 (peptide sequence: RKFSEEPEVAANFTK, peptide start residue: 551)	-0.38

Reference: the supplement of paper PMC12819154, “High-throughput peptide-centric local stability assay extends protein–ligand identification to membrane proteins, tissues and bacteria” (Nature Structural & Molecular Biology, 2025)
